Measured values from patent US20250075147A1, “FRAGRANCE AND FLAVOR COMPOSITIONS COMPRISING NEW FLAVOR AND FRAGRANCE INGREDIENTS” (priority 2023, published 2025).

How the values were obtained:
odor evaluation panel = assay: Odor evaluation panel rating of odorants by Rate-All-That-Apply (RATA) method with 55-word odor lexicon, plus intensity and pleasantness; set-up: species or system human; conditions: for Floral: mean panelist score for odor label floral (RATA); for Fruity: mean panelist score for odor label fruity (RATA); for Spicy: mean panelist score for odor label spicy (RATA); for Sweet: mean panelist score for odor label sweet (RATA); for Pleasantness: mean panelist score for odor pleasantness
[1] = Evaluation by trained and/or certified flavor or fragrance chemists or master perfumers; categorization by commercial prospect; conditions: for Rating (category of commercial prospect): evaluation by trained flavor or fragrance chemists or master perfumers; for Rating: category of commercial prospect, (A) highest > (B) > (C) > (D) lowest, (E) requires further study

Compound | Floral (odor evaluation panel) | Fruity (odor evaluation panel) | Spicy (odor evaluation panel) | Sweet (odor evaluation panel) | Pleasantness (odor evaluation panel) | Rating (category of commercial prospect) [1] | Rating [1]
CCC(C)(C)c1ccccc1 [Compound 982, 2-methylbutan-2-ylbenzene] | 0.097 | 0.032 | 0.613 | 0.323 | 4.955 | (C) | 
NCCC1=CCCCC1 [Compound 382, 2-(cyclohexen-1-yl)ethanamine] | 0.594 | 0 | 0.219 | 0.469 | 2.294 |  | (D)
CCOC(C)(OCC)OCC [Compound 541, 1,1,1-triethoxyethane] | 0.111 | 0.139 | 0 | 0.556 |  |  | (D)
COc1cccc(CO)c1 [Compound 803, (3-methoxyphenyl)methanol] | 0.387 | 0.032 | 0.129 | 0.387 | 5.097 | (D) | 
O=C(O)CC1CC1 [Compound 642, 2-cyclopropylacetic acid] | 0 | 0.75 | 0.125 | 1.219 | 4.525 | (D) | 
O=C1CCCN1C1CCCCC1 [Compound 879, 1-cyclohexylpyrrolidin-2-one] | 0 | 0 | 0.286 | 0.143 | 3.623 | (D) | 
CC(C)OC(=O)C1CCCCC1 [Compound 392, propan-2-yl cyclohexanecarboxylate] | 0.25 | 2.844 | 0.062 | 2.156 | 6.784 |  | (D)
C/C(N)=C/C(=O)OC(C)C [Compound 738, propan-2-yl (Z)-3-aminobut-2-enoate] | 0.344 | 0 | 0.406 | 0.094 | 2.262 | (D) | 
ON=C1CCCCC1 [Compound 515, N-cyclohexylidenehydroxylamine] | 0 | 0.067 | 0.433 | 0.1 | 3.443 |  | (C)
CCC(O)COC (stereo not drawn) [Compound 881, 1-methoxybutan-2-ol] | 0.206 | 0.382 | 0.324 | 0.647 | 4.944 | (D) | 
CCc1ccc(CO)cc1 [Compound 358, (4-ethylphenyl)methanol] | 0.125 | 0.062 | 0 | 0.438 | 3.331 |  | (E)
CCO/C=C/C(=O)OCC [Compound 679, ethyl (E)-3-ethoxyprop-2-enoate] | 0.906 | 2.562 | 0 | 1.781 | 6.528 | (B) | 
CC1CN(C)CCC1=O (stereo not drawn) [Compound 171, 1,3-dimethylpiperidin-4-one] | 0 | 0 | 0 | 0.143 | 2.514 |  | (D)
O=C1CCCCC1C1=CCCCC1 (stereo not drawn) [Compound 327, 2-(cyclohexen-1-yl)cyclohexan-1-one] | 0.344 | 0.781 | 0.344 | 1.062 | 5.519 |  | (A)
COC(=O)C1(C(=O)OC)CCC1 [Compound 491, dimethyl cyclobutane-1,1-dicarboxylate] | 0 | 0 | 0.083 | 0 |  |  | (D)
CCCC1=CC(=O)OC1O (stereo not drawn) [Compound 322, 2-hydroxy-3-propyl-2H-furan-5-one] | 0 | 0.056 | 0 | 0.444 |  |  | (A)
c1ccc(-c2ccncc2)nc1 [Compound 960, 2-pyridin-4-ylpyridine] | 0.125 | 0 | 0.281 | 0.25 | 3.472 | (D) | 
OCC1CC=CCC1 (stereo not drawn) [Compound 245, cyclohex-3-en-1-ylmethanol] | 0.389 | 0.333 | 0.194 | 0.611 |  |  | (D)
N#CCCNc1ccccc1 [Compound 704, 3-anilinopropanenitrile] | 0.125 | 0.062 | 0 | 0.406 | 5.003 | (D) | 

Compound | Floral (odor evaluation panel) | Fruity (odor evaluation panel) | Spicy (odor evaluation panel) | Sweet (odor evaluation panel) | Pleasantness (odor evaluation panel) | Rating (category of commercial prospect) [1] | Rating [1]
CCCCc1ccsc1 [Compound 790, 3-butylthiophene] | 0.806 | 0.639 | 0.25 | 0.944 |  | (D) | 
CC1(C)[C@@H]2C[C@@H](O)[C@@](C)(O)[C@H]1C2 [Compound 144, (1S,2S,3R,5S)-2,6,6-trimethylbicyclo[3.1.1]heptane-2,3-diol] | 0.1 | 0.033 | 0 | 0.233 | 4.893 |  | (D)
c1ccc(CCc2ccccc2)cc1 [Compound 190, 2-phenylethylbenzene] | 0.562 | 0.312 | 0.156 | 1 | 5.556 |  | (D)
CC(C)COC(=O)c1ccccc1C(=O)OCC(C)C [Compound 378, bis(2-methylpropyl) benzene-1,2-dicarboxylate] | 0.125 | 0.25 | 0.062 | 0.344 | 5.672 |  | (D)
C1=CCCCCCC1 [Compound 232, cyclooctene] | 0.219 | 0.219 | 0.281 | 0.531 | 5.053 |  | (A)
CC(CCN(C)C)N(C)C (stereo not drawn) [Compound 185, N,N,N,N-tetramethylbutane-1,3-diamine] | 0.097 | 0.065 | 0 | 0.097 | 2.529 |  | (D)
c1ccc2ocnc2c1 [Compound 926, 1,3-benzoxazole] | 0.306 | 0.417 | 0 | 1.167 |  | (A) | 
CC1CC(=O)OC1=O (stereo not drawn) [Compound 116, 3-methyloxolane-2,5-dione] | 0.028 | 0 | 0.306 | 0.556 |  |  | (D)
CSc1ccc(O)cc1C [Compound 952, 3-methyl-4-methylsulfanylphenol] | 0.257 | 0 | 0.029 | 0.229 | 3.789 | (D) | 
COC(=O)c1ccc(OC)c(N)c1 [Compound 36, methyl 3-amino-4-methoxybenzoate] | 0.167 | 0 | 0.167 | 0.222 |  |  | (D)
C=CC1CCC(C=C)C(C=C)C1 (stereo not drawn) [Compound 464, 1,2,4-tris(ethenyl)cyclohexane] | 0.324 | 0.206 | 0.471 | 0.588 | 5.071 |  | (B)
CCN(O)CC [Compound 561, N,N-diethyl hydroxylamine] | 0.219 | 0 | 0.125 | 0.156 | 2.978 |  | (D)
CC1(C)CCCC(C)(C)N1[O] [Compound 854, 2,2,6,6-tetramethyl-1-piperidinyloxy radical] | 0.056 | 0 | 0 | 0.306 |  | (C) | 
CN(C1CCCCC1)C1CCCCC1 [Compound 404, N-cyclohexyl-N-methylcyclohexanamine] | 0.094 | 0 | 0.156 | 0.062 | 2.956 |  | (D)
CSc1nccs1 [Compound 164, 2-methylsulfanyl-1,3-thiazole] | 0 | 0 | 0.125 | 0.344 | 5.719 |  | (C)
c1ccc2nsnc2c1 [Compound 753, 2,1,3-benzothiadiazole] | 0.25 | 0.281 | 0.094 | 1.125 | 4.922 | (C) | 
N#Cc1ccccn1 [Compound 177, pyridine-2-carbonitrile] | 0.161 | 0.806 | 0.871 | 1.161 | 5.694 |  | (B)
Cc1cn[nH]c1C [Compound 216, 4,5-dimethyl-1H-pyrazole] | 0 | 0.094 | 0.469 | 0.875 | 5.556 |  | (A)
